Data as given in PMC7819943, “Rice protein-binding microarrays: a tool to detect cis-acting elements near promoter regions in rice”.
This is one part of the list.

Protein sequences, listed by entry. Tags and fused reporters are not part of them.
UniProt Q0JBA9, entry or part of it: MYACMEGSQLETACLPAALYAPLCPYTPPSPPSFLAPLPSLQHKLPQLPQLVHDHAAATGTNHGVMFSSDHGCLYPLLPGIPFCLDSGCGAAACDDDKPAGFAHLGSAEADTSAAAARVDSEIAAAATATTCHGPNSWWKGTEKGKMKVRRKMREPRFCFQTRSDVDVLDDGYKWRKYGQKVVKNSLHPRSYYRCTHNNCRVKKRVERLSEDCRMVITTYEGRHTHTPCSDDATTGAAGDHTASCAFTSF

Biological target: OsWRKY34 (Oryza sativa, UniProt Q0JBA9 1-250)
Assay: protein-binding microarray (RPBM); PBS, 2% BSA, 51.3 ng/ul salmon testes DNA, 50 uM zinc acetate, 200 nM TF, 25 C, 1 h; high values mean tight binding
Conditions: protein: recombinant; tags: N-terminal polyhistidine and DsRed monomer fusion (pET32a); label: CyDye5-dUTP incorporated in the synthesized complementary strand; 3' TTTTT single-stranded linker to array surface; dsDNA, one strand shown
Method in brief: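 Transcription factors were made in E. coli BL21-CodonPlus as N-terminal fusions to a polyhistidine tag and DsRed, then purified on Ni–NTA. After primer extension with Cy5-dUTP and blocking with 2% BSA, a custom Agilent array was exposed for 1 h at 25 °C to 200 nM protein in PBS, 2% BSA, salmon testes DNA and 50 µM zinc acetate. Washed arrays were scanned on an Axon 4000B, and the binding signal is per-feature fluorescence intensity in arbitrary units.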

Sequence | binding signal
TCTATGTGTGCATCTGTTGCAGCTCAAATTATTTTCATGTCGGAGTCACCTAGTGCAG | 8480 fluorescence intensity (a.u.)
TGATATTTCTAAGAAGTTGGGTTTGTTGATGTTATTTCTTCGGAGTCACCTAGTGCAG | 8280 fluorescence intensity (a.u.)
AATTCGTTTTGCGGGCGGGAGGAATTAACTCTCAGAACCACGGAGTCACCTAGTGCAG | 9460 fluorescence intensity (a.u.)
GGTCAGTCAGTCACTCACAGTATCCGATCCGATCTGGAGTCGGAGTCACCTAGTGCAG | 11100 fluorescence intensity (a.u.)
CTCCGATACCGTCATCTCACCACACAAACGCAGGCACACACGGAGTCACCTAGTGCAG | 9630 fluorescence intensity (a.u.)
AGTTATGTGATTATGTTGTTGTTGTTGTTCTTGGATGTGACGGAGTCACCTAGTGCAG | 11200 fluorescence intensity (a.u.)
ACTCTCTTCACACTGCAAGCATCGATTAGTGGGACCATAACGGAGTCACCTAGTGCAG | 9220 fluorescence intensity (a.u.)
GGCTTCCAAACCACTTCGGGTTTTGATATGTGATAACCTTCGGAGTCACCTAGTGCAG | 8190 fluorescence intensity (a.u.)
ATCTAACTGCATGCATGCATACAGGCCTCTTTAAGCATGGCGGAGTCACCTAGTGCAG | 8320 fluorescence intensity (a.u.)
GTTTTCATATCTGAGGTTTTCAATTTTGATTCCTACTCCGCGGAGTCACCTAGTGCAG | 9400 fluorescence intensity (a.u.)
TCTCGTCTCCGCCACCGTGCGCGCGTCCCCTATATTAGACCGGAGTCACCTAGTGCAG | 10400 fluorescence intensity (a.u.)
CACATTTGCCAGCACCGAGATCTCCAGAGCCAGATATTCCCGGAGTCACCTAGTGCAG | 9680 fluorescence intensity (a.u.)
TGTACGTGGTCGTTTCAGTCGTCATTGTGAAAATTTCGATCGGAGTCACCTAGTGCAG | 8460 fluorescence intensity (a.u.)
ATGCATGTTGTGTGAACCGTTGATGTTTCTGGATTCAACTCGGAGTCACCTAGTGCAG | 9410 fluorescence intensity (a.u.)
CGATCGGGCCGCGGCGCGAGGGAGGGGATCGGTGCGCGCGCGGAGTCACCTAGTGCAG | 8060 fluorescence intensity (a.u.)
GAGGAGGGACTCGGGGCGGGAGGAAGACGGCGAGGAGGGGCGGAGTCACCTAGTGCAG | 16500 fluorescence intensity (a.u.)
GCTTCCCAAATAGTCCTAACTCCAAGTCTTTTTTTTTAACCGGAGTCACCTAGTGCAG | 8290 fluorescence intensity (a.u.)
CAACCAGCCAACTGTCCACCTAATGCTCAGATTAACACTACGGAGTCACCTAGTGCAG | 8810 fluorescence intensity (a.u.)
AAGACAAAATATTCTGGTATTCTCATGTGCATTTCATTTTCGGAGTCACCTAGTGCAG | 8040 fluorescence intensity (a.u.)
TTGTTACCGCCTTTTTGACGCCCGCATCTCCGTCCATCGACGGAGTCACCTAGTGCAG | 15800 fluorescence intensity (a.u.)
CGTGTTCGGTGTTTCGGTGCGGCGGCCATATATACGCGCGCGGAGTCACCTAGTGCAG | 8350 fluorescence intensity (a.u.)

Sequence | binding signal
CGGCAACGGCAGCGGCAGCGGCAGCATCGACCATGAAGACCGGAGTCACCTAGTGCAG | 9120 fluorescence intensity (a.u.)
TTCTCTATTTGGTTTTGTCACTGGTCAATGCCACCAACTGCGGAGTCACCTAGTGCAG | 8260 fluorescence intensity (a.u.)
CAATTGTTCCACCTCCAGCTGTTCTTGCTACTACAATCTGCGGAGTCACCTAGTGCAG | 9540 fluorescence intensity (a.u.)
CCTACTCCGTTCAGTTTCTCCCCGGTGTCAAACTTGTCAACGGAGTCACCTAGTGCAG | 9410 fluorescence intensity (a.u.)
AGCCATCTTACATATTATTTTTACTTATTGTTATCATACTCGGAGTCACCTAGTGCAG | 11400 fluorescence intensity (a.u.)
AGGTACCCGTCGTATTTGGTTTTCTGGTTGAAGGACTTAACGGAGTCACCTAGTGCAG | 10600 fluorescence intensity (a.u.)
ATTCTGCCCACCTGCTTACAATCTATTTCAGTTCTGTTGCCGGAGTCACCTAGTGCAG | 12000 fluorescence intensity (a.u.)
TTAGTGCACATGTCATTCGGATGGTGAGTTATTTTCTAATCGGAGTCACCTAGTGCAG | 8440 fluorescence intensity (a.u.)
TTCCTGTCTTTCATTCATTATTTGAAAGTGGATTTTTTATCGGAGTCACCTAGTGCAG | 8830 fluorescence intensity (a.u.)
GAAACTCCGTTCTTTCTTCCTTTTGGCCCAATCTTTTATCCGGAGTCACCTAGTGCAG | 9760 fluorescence intensity (a.u.)
TAGGCCAGGGTGGGAGACCTATTGATAATTTTTACACTTACGGAGTCACCTAGTGCAG | 11400 fluorescence intensity (a.u.)
GTTGAATCTATCATAACCATTGCTGTGTGTGCCAGGCCAACGGAGTCACCTAGTGCAG | 8150 fluorescence intensity (a.u.)
AAGTTCTCGTCAATTTTTTTTGTTCGCTGATCAACTATAGCGGAGTCACCTAGTGCAG | 8040 fluorescence intensity (a.u.)
GGTTGGGTGTTTTTGCTTCTCTTGTAGTCTTTGTGTAGAACGGAGTCACCTAGTGCAG | 21500 fluorescence intensity (a.u.)
CTACAGTCGATTTTTTTTCAGCCACTTACACAGTATTTATCGGAGTCACCTAGTGCAG | 9800 fluorescence intensity (a.u.)
GCTCGATTGCCTTTTCATCATTCACATTGTTCTTCTTCTTCGGAGTCACCTAGTGCAG | 9180 fluorescence intensity (a.u.)
AGGGACCTTCGGTGTACTTTTTCCTTTTTTTTACTTTGAGCGGAGTCACCTAGTGCAG | 9610 fluorescence intensity (a.u.)
CCAGCCCCTCAACCTTCGGTTTGCAGACAGTTTGCCAGCTCGGAGTCACCTAGTGCAG | 8380 fluorescence intensity (a.u.)
CAAACCTACTACCACTTCGATCACTGTACCTATAAATTTTCGGAGTCACCTAGTGCAG | 9410 fluorescence intensity (a.u.)
CCTAAAACATCGCAATTGATGTCTATGCTCGTACATTTTCCGGAGTCACCTAGTGCAG | 11500 fluorescence intensity (a.u.)
GCTAGCGCTATATATATTTTCTCAGTTTGCTTACTACTATCGGAGTCACCTAGTGCAG | 12200 fluorescence intensity (a.u.)

Individual results from the entries so far:
binding signal with ATTCTGCCCACCTGCTTACAATCTATTTCAGTTCTGTTGCCGGAGTCACCTAGTGCAG reads 12000 fluorescence intensity (a.u.)
binding signal with TAGGCCAGGGTGGGAGACCTATTGATAATTTTTACACTTACGGAGTCACCTAGTGCAG reads 11400 fluorescence intensity (a.u.)
binding signal with AAGTTCTCGTCAATTTTTTTTGTTCGCTGATCAACTATAGCGGAGTCACCTAGTGCAG reads 8040 fluorescence intensity (a.u.)

(listing goes on)

Sequence | binding signal
AGTCCCAAGTCACAACTGACAACAAGGCAACTACTACTACCGGAGTCACCTAGTGCAG | 8360 fluorescence intensity (a.u.)
GGGGTGTTCACTGAAATGCTATTTTGGGTCTTTTTGAGTACGGAGTCACCTAGTGCAG | 15100 fluorescence intensity (a.u.)
AATAATGCTTACGACCCCTAATTTCCATCCCCACCATTGACGGAGTCACCTAGTGCAG | 8120 fluorescence intensity (a.u.)
TCTCTTTAATAGTACCTACATATACTGCTGAACTGAAGACCGGAGTCACCTAGTGCAG | 10100 fluorescence intensity (a.u.)
CCTCCGTCCCTCGCCCGCGCGAGCTACGTACTACGTTTACCGGAGTCACCTAGTGCAG | 8530 fluorescence intensity (a.u.)
AAAAATACATAGTATAGTTGTCCACGTGCCTTGTTTTTTCCGGAGTCACCTAGTGCAG | 10000 fluorescence intensity (a.u.)
CCCCGTTCGATCTGACAATACGCCATGTCACCTAACAAGACGGAGTCACCTAGTGCAG | 8560 fluorescence intensity (a.u.)
GATTGTTCATTTCACTTGTTCTGTGCTATTCTCTGTTTGTCGGAGTCACCTAGTGCAG | 10800 fluorescence intensity (a.u.)
AACAAAATCTCCTTACTACCTACTAGCTGCCTTTGCTTCTCGGAGTCACCTAGTGCAG | 8380 fluorescence intensity (a.u.)
TTACAGGCATCTTCATCGTTTGTTCTTCAGCTTATCAACTCGGAGTCACCTAGTGCAG | 8210 fluorescence intensity (a.u.)
CTTTGCCACCTTTCGGTGTGATCTTGGCGTTGCCCTTCTCCGGAGTCACCTAGTGCAG | 8640 fluorescence intensity (a.u.)
GGTCCCTAAACTTGCTTAGCCGTACATCACCTGTCCAAATCGGAGTCACCTAGTGCAG | 8710 fluorescence intensity (a.u.)
GGTCAATGGCCGTCGTCGGTCGCATGCAGCTTCACGTTTCCGGAGTCACCTAGTGCAG | 8530 fluorescence intensity (a.u.)
CATTTTACATGTTCTGCAGCATTCTCTTATGTAATTCAAACGGAGTCACCTAGTGCAG | 8780 fluorescence intensity (a.u.)
GTTCCGTTTTCCGCGCGCACGCTTCCCAAACTATTAAATGCGGAGTCACCTAGTGCAG | 11900 fluorescence intensity (a.u.)
GTCTGTCTTCGTCACCCCTGCCGCTGCCGCTGCCGCTGCCCGGAGTCACCTAGTGCAG | 8380 fluorescence intensity (a.u.)
ATGGCTATTACCTGGTTGGACGAGTGCATTTATTGTTTATCGGAGTCACCTAGTGCAG | 8390 fluorescence intensity (a.u.)
GCCATTTTGCACCTTAATTAATTTTATGCTGTCTATTCTCCGGAGTCACCTAGTGCAG | 11300 fluorescence intensity (a.u.)
TGGCTATAAATACTTCCTCTCACCAATTGCCCACATAACTCGGAGTCACCTAGTGCAG | 8070 fluorescence intensity (a.u.)
CACCAACCCATTTCCAGAAAATTCCTCTCACTGCGTCATGCGGAGTCACCTAGTGCAG | 8280 fluorescence intensity (a.u.)
ATCGTCCGTCAAGCTTCTCCTTGCCGCTCATTTGGCTTAGCGGAGTCACCTAGTGCAG | 11000 fluorescence intensity (a.u.)

Sequence | binding signal
CGTTTCTGCTCGCGCCTTCTTCTCGTTCTCATCATTTTTCCGGAGTCACCTAGTGCAG | 10400 fluorescence intensity (a.u.)
CCATTATCCATACGTTTTTCTCCACATCACTCGCCGGCCGCGGAGTCACCTAGTGCAG | 11800 fluorescence intensity (a.u.)
AGTGTGTTCTTTTCTCCTTTATTAACTCTACTTTTTCATCCGGAGTCACCTAGTGCAG | 9390 fluorescence intensity (a.u.)
AATCTGTGGCGATAACCTGTATGCTCACACACTTGCCTCTCGGAGTCACCTAGTGCAG | 8610 fluorescence intensity (a.u.)
CGCCGTCGTTAGTCCTGCTGCTTCCGCCGCATCCATCCTGCGGAGTCACCTAGTGCAG | 11100 fluorescence intensity (a.u.)
CTTTTTTTTTCTTTCTTCATTTTCTTTTCCCATTGACTTCCGGAGTCACCTAGTGCAG | 12300 fluorescence intensity (a.u.)
TAATGCCGTTTCGCGTTGCCACGCTCTCACTCTCTTTTGCCGGAGTCACCTAGTGCAG | 12000 fluorescence intensity (a.u.)
ACCCTCCTGGCCTCCTCGGCGCCACCCGTTGCCCGCCGCGCGGAGTCACCTAGTGCAG | 8270 fluorescence intensity (a.u.)
CCTGGCTTGTTCATTCTGCTTGCCCTGCATTGCACAGTACCGGAGTCACCTAGTGCAG | 9130 fluorescence intensity (a.u.)
TTTTTTTTTCCTGGTTTACCGCTTGAGATTGTTTTCTTCACGGAGTCACCTAGTGCAG | 8180 fluorescence intensity (a.u.)
CTGCCTGCGCTGCGTTCTCCTTGTGCTTGTGTGCGTGTGACGGAGTCACCTAGTGCAG | 13900 fluorescence intensity (a.u.)
TACTTTCTTCGTCCTCGCCTCGTCGCGTCGCTCTGTCTTCCGGAGTCACCTAGTGCAG | 13400 fluorescence intensity (a.u.)
GTCTAATAAGTTCATTCTTGACATCTCCCATTTATCTCAACGGAGTCACCTAGTGCAG | 8590 fluorescence intensity (a.u.)
CCTCATTTTCTTGTGAAATTTTTGGTATTGCATGATGCTACGGAGTCACCTAGTGCAG | 8640 fluorescence intensity (a.u.)
CTTTTCGCCATTCAAGGAATTACCTCGTGGGCTATATGTACGGAGTCACCTAGTGCAG | 8580 fluorescence intensity (a.u.)
CTTGTTTTTCTCATTAGTCTATATTTAATACTTAAAATATCGGAGTCACCTAGTGCAG | 8440 fluorescence intensity (a.u.)
CATCTATCAAAGGTACATATATTTTCACTTTTTCAGACTACGGAGTCACCTAGTGCAG | 8200 fluorescence intensity (a.u.)
TTGAAGGAACCCTATAGTTTTCACTTCAACATCATATTACCGGAGTCACCTAGTGCAG | 8050 fluorescence intensity (a.u.)
TATTGGGCTTGAGGTTTTGTGGCCCGTAAAGGGAGGGGTGCGGAGTCACCTAGTGCAG | 8110 fluorescence intensity (a.u.)
AGCTCCTTATTCGTCGCATAATTTTTCACGATCTCGCAGACGGAGTCACCTAGTGCAG | 11400 fluorescence intensity (a.u.)
ATGGCTTCTCTCTCTGCTGTGTGTTCAGGGGTCGGGGATCCGGAGTCACCTAGTGCAG | 15900 fluorescence intensity (a.u.)
